# Test results: the supplement of paper PMC10077471
# Whole data set: some 1,900 compounds, median “excess over highest single agent (ExcessHSA) synergy score, 6x6 matrix” near -83, cut for the lowest 2% near -370. This is one part of the list.
# Tested on: NCI-H446
# Assay: excess over highest single agent (ExcessHSA) synergy score, 6x6 matrix; higher = less synergy (more negative = stronger synergy)
# Conditions: 72 h; CellTiter-Glo viability
row,Structure (SMILES),excess over highest single agent
1,CCN1C[C@H](C)n2c(c(O)c3c(=O)n(Cc4ccc(F)c(Cl)c4)nc(C(=O)NC)c32)C1=O + Cc1sc2c(c1C)C(c1ccc(Cl)cc1)=N[C@@H](CC(=O)OC(C)(C)C)c1nnc(C)n1-2 [NCGC00250412-19],-166
2,O=C(Nc1nnc(-c2ccco2)o1)c1cc(-c2ccccc2)nc2ccccc12 + Cc1sc2c(c1C)C(c1ccc(Cl)cc1)=N[C@@H](CC(=O)OC(C)(C)C)c1nnc(C)n1-2 [NCGC00250412-19],33.7
3,CCCCN(CCCC)CC(O)c1cc(Cl)cc2c1-c1ccc(Cl)cc1/C2=C/c1ccc(Cl)cc1 (stereo not given) + Cc1sc2c(c1C)C(c1ccc(Cl)cc1)=N[C@@H](CC(=O)OC(C)(C)C)c1nnc(C)n1-2 [NCGC00250412-19],-129
4,Cc1cn(-c2cc(NC(=O)c3ccc(C)c(Nc4nccc(-c5cccnc5)n4)c3)cc(C(F)(F)F)c2)cn1 + Cc1sc2c(c1C)C(c1ccc(Cl)cc1)=N[C@@H](CC(=O)OC(C)(C)C)c1nnc(C)n1-2 [NCGC00250412-19],-3.24
5,NC(=O)c1ccc(-c2nc(-c3ccccn3)c(-c3ccc4c(c3)OCO4)[nH]2)cc1 + Cc1sc2c(c1C)C(c1ccc(Cl)cc1)=N[C@@H](CC(=O)OC(C)(C)C)c1nnc(C)n1-2 [NCGC00250412-19],70.1
6,Cc1c(-c2cccc3c(CCCOc4cccc5ccccc45)c(C(=O)O)n(Cc4cccnc4)c23)c(COc2ccc(N3CCN([S+](=O)([O-])N(C)C)CC3)cc2)nn1C + Cc1sc2c(c1C)C(c1ccc(Cl)cc1)=N[C@@H](CC(=O)OC(C)(C)C)c1nnc(C)n1-2 [NCGC00250412-19],-37.3
7,C/C(=C\c1csc(C)n1)[C@@H]1C[C@@H]2O[C@]2(C)CCC[C@H](C)[C@H](O)[C@@H](C)C(=O)C(C)(C)[C@@H](O)CC(=O)O1 + Cc1sc2c(c1C)C(c1ccc(Cl)cc1)=N[C@@H](CC(=O)OC(C)(C)C)c1nnc(C)n1-2 [NCGC00250412-19],-148
8,C[C@@H](O[C@H]1OCCN(Cc2n[nH]c(=O)[nH]2)[C@H]1c1ccc(F)cc1)c1cc(C(F)(F)F)cc(C(F)(F)F)c1 + Cc1sc2c(c1C)C(c1ccc(Cl)cc1)=N[C@@H](CC(=O)OC(C)(C)C)c1nnc(C)n1-2 [NCGC00250412-19],-167
9,C=C[C@H]1CN2CC[C@H]1C[C@@H]2[C@@H](O)c1ccnc2ccccc12 + Cc1sc2c(c1C)C(c1ccc(Cl)cc1)=N[C@@H](CC(=O)OC(C)(C)C)c1nnc(C)n1-2 [NCGC00250412-19],31.1
10,CCCNC(=O)Nc1ccc(Oc2ncnc3cc(OC)c(OC)cc23)cc1Cl + Cc1sc2c(c1C)C(c1ccc(Cl)cc1)=N[C@@H](CC(=O)OC(C)(C)C)c1nnc(C)n1-2 [NCGC00250412-19],-41.2
11,CN(C)C(=O)[C@H](O)[C@H](Cc1ccccc1)NC(=O)c1cc2cc(Cl)ccc2[nH]1 + Cc1sc2c(c1C)C(c1ccc(Cl)cc1)=N[C@@H](CC(=O)OC(C)(C)C)c1nnc(C)n1-2 [NCGC00250412-19],121
12,Cc1cc(CN2CCN(c3c(Br)cnc4nc(-c5ccc(N6CCN(C)CC6)cc5)[nH]c34)CC2)no1 + Cc1sc2c(c1C)C(c1ccc(Cl)cc1)=N[C@@H](CC(=O)OC(C)(C)C)c1nnc(C)n1-2 [NCGC00250412-19],-107
13,CC(C)CC(N(C)C)C1(c2ccc(Cl)cc2)CCC1 (stereo not given) + Cc1sc2c(c1C)C(c1ccc(Cl)cc1)=N[C@@H](CC(=O)OC(C)(C)C)c1nnc(C)n1-2 [NCGC00250412-19],-129
14,COCCCN1CCC(NC(=O)c2cc(Cl)c(N)c3c2OCC3)CC1 + Cc1sc2c(c1C)C(c1ccc(Cl)cc1)=N[C@@H](CC(=O)OC(C)(C)C)c1nnc(C)n1-2 [NCGC00250412-19],-101
15,C[C@@H](O)[C@@H]1NC(=O)[C@H](CCCCN)NC(=O)[C@@H](Cc2c[nH]c3ccccc23)NC(=O)[C@H](Cc2ccccc2)NC(=O)[C@@H](NC(=O)[C@H](N)Cc2ccccc2)CSSC[C@@H](C(=O)N[C@H](CO)[C@@H](C)O)NC1=O + Cc1sc2c(c1C)C(c1ccc(Cl)cc1)=N[C@@H](CC(=O)OC(C)(C)C)c1nnc(C)n1-2 [NCGC00250412-19],-219
16,C[C@H](CCC(=O)O)[C@H]1CC[C@H]2[C@@H]3[C@@H](O)C[C@@H]4C[C@H](O)CC[C@]4(C)[C@H]3CC[C@]12C + Cc1sc2c(c1C)C(c1ccc(Cl)cc1)=N[C@@H](CC(=O)OC(C)(C)C)c1nnc(C)n1-2 [NCGC00250412-19],-19.3
17,CCNc1cc(NC2CCC(O)CC2)nc(Nc2ccc3c(ccn3Cc3ccccc3)c2)n1 (stereo not given) + Cc1sc2c(c1C)C(c1ccc(Cl)cc1)=N[C@@H](CC(=O)OC(C)(C)C)c1nnc(C)n1-2 [NCGC00250412-19],-94
18,Cc1ccc(F)c(NC(=O)Nc2ccc(-c3cccc4[nH]nc(N)c34)cc2)c1 + Cc1sc2c(c1C)C(c1ccc(Cl)cc1)=N[C@@H](CC(=O)OC(C)(C)C)c1nnc(C)n1-2 [NCGC00250412-19],-96.9

# In a second layout: entries from further up
row	Structure (SMILES)	excess over highest single agent
7	C/C(=C\c1csc(C)n1)[C@@H]1C[C@@H]2O[C@]2(C)CCC[C@H](C)[C@H](O)[C@@H](C)C(=O)C(C)(C)[C@@H](O)CC(=O)O1 + Cc1sc2c(c1C)C(c1ccc(Cl)cc1)=N[C@@H](CC(=O)OC(C)(C)C)c1nnc(C)n1-2 [NCGC00250412-19]	-148
10	CCCNC(=O)Nc1ccc(Oc2ncnc3cc(OC)c(OC)cc23)cc1Cl + Cc1sc2c(c1C)C(c1ccc(Cl)cc1)=N[C@@H](CC(=O)OC(C)(C)C)c1nnc(C)n1-2 [NCGC00250412-19]	-41.2

# Going on with the list.

row,Structure (SMILES),excess over highest single agent
1,CCC(=C/[C@H](C)C/C=C/C(C)=C/[C@@H](C)C(=O)[C@@H](C)[C@H](O)[C@@H](C)C/C(C)=C/C(=O)O)/C=C/[C@@H]1OC(=O)C=C[C@@H]1C + Cc1sc2c(c1C)C(c1ccc(Cl)cc1)=N[C@@H](CC(=O)OC(C)(C)C)c1nnc(C)n1-2 [NCGC00250412-19],-29.3
2,CC(C)OC(=O)C1=CN(C(=O)c2ccc(F)c(F)c2)CC(C)(C)c2c1[nH]c1ccccc21 + Cc1sc2c(c1C)C(c1ccc(Cl)cc1)=N[C@@H](CC(=O)OC(C)(C)C)c1nnc(C)n1-2 [NCGC00250412-19],-106
3,COC(=O)[C@@H]1CC2=CC(=O)CC[C@]2(C)[C@@]23O[C@@H]2C[C@@]2(C)[C@@H](CC[C@@]24CCC(=O)O4)[C@H]13 + Cc1sc2c(c1C)C(c1ccc(Cl)cc1)=N[C@@H](CC(=O)OC(C)(C)C)c1nnc(C)n1-2 [NCGC00250412-19],47.5
4,NC(=O)c1nnn(Cc2cc(Cl)c(C(=O)c3ccc(Cl)cc3)c(Cl)c2)c1N + Cc1sc2c(c1C)C(c1ccc(Cl)cc1)=N[C@@H](CC(=O)OC(C)(C)C)c1nnc(C)n1-2 [NCGC00250412-19],-2.84
5,CC(C)(C)[N+]([O-])=Cc1ccc(S(=O)(=O)O)cc1S(=O)(=O)O + Cc1sc2c(c1C)C(c1ccc(Cl)cc1)=N[C@@H](CC(=O)OC(C)(C)C)c1nnc(C)n1-2 [NCGC00250412-19],-60
6,Cc1ccc(NC(=O)c2cccc(C(C)(C)C#N)c2)cc1Nc1ccc2ncn(C)c(=O)c2c1 + Cc1sc2c(c1C)C(c1ccc(Cl)cc1)=N[C@@H](CC(=O)OC(C)(C)C)c1nnc(C)n1-2 [NCGC00250412-19],98.6
7,OCCN(CCO)c1nc(N2CCCCC2)c2nc(N(CCO)CCO)nc(N3CCCCC3)c2n1 + Cc1sc2c(c1C)C(c1ccc(Cl)cc1)=N[C@@H](CC(=O)OC(C)(C)C)c1nnc(C)n1-2 [NCGC00250412-19],73.2
8,CC[C@H](CO)Nc1nc(NCc2ccccc2)c2ncn(C(C)C)c2n1 + Cc1sc2c(c1C)C(c1ccc(Cl)cc1)=N[C@@H](CC(=O)OC(C)(C)C)c1nnc(C)n1-2 [NCGC00250412-19],-86
9,CN(c1nccc(=O)[nH]1)C1CCN(c2nc3ccccc3n2Cc2ccc(F)cc2)CC1 + Cc1sc2c(c1C)C(c1ccc(Cl)cc1)=N[C@@H](CC(=O)OC(C)(C)C)c1nnc(C)n1-2 [NCGC00250412-19],-37.9
10,C[N+](C)(C)CC(=O)O + Cc1sc2c(c1C)C(c1ccc(Cl)cc1)=N[C@@H](CC(=O)OC(C)(C)C)c1nnc(C)n1-2 [NCGC00250412-19],11.6
11,O=c1[nH]c2ccccc2n1CCCN1CCC(n2c(=O)[nH]c3cc(Cl)ccc32)CC1 + Cc1sc2c(c1C)C(c1ccc(Cl)cc1)=N[C@@H](CC(=O)OC(C)(C)C)c1nnc(C)n1-2 [NCGC00250412-19],-247
12,CC(C)OC(=O)OCOP(=O)(CO[C@H](C)Cn1cnc2c(N)ncnc21)OCOC(=O)OC(C)C + Cc1sc2c(c1C)C(c1ccc(Cl)cc1)=N[C@@H](CC(=O)OC(C)(C)C)c1nnc(C)n1-2 [NCGC00250412-19],-70.6
13,C#C[C@]1(O)CC[C@H]2[C@@H]3CCC4=CC(=O)CC[C@]4(C)[C@H]3CC[C@@]21C + Cc1sc2c(c1C)C(c1ccc(Cl)cc1)=N[C@@H](CC(=O)OC(C)(C)C)c1nnc(C)n1-2 [NCGC00250412-19],-97.6
14,COc1cc(-c2nn([C@H]3CC[C@H](N4CCN(C(C)=O)CC4)CC3)c3ncnc(N)c23)ccc1NC(=O)c1cc2ccccc2n1C + Cc1sc2c(c1C)C(c1ccc(Cl)cc1)=N[C@@H](CC(=O)OC(C)(C)C)c1nnc(C)n1-2 [NCGC00250412-19],-41.2
15,CC(C)[C@H](CO)Nc1nc(Nc2ccc(C(=O)O)c(Cl)c2)c2ncn(C(C)C)c2n1 + Cc1sc2c(c1C)C(c1ccc(Cl)cc1)=N[C@@H](CC(=O)OC(C)(C)C)c1nnc(C)n1-2 [NCGC00250412-19],41.5
16,C[C@@H]1[C@@H](C(=O)C[C@H]2O[C@@H]3O[C@]4(C)CC[C@@H]5[C@H](C)CC[C@@H]([C@H]2C)[C@@]35OO4)O[C@@H]2O[C@]3(C)CC[C@H]4[C@H](C)CC[C@@H]1[C@@]24OO3 + Cc1sc2c(c1C)C(c1ccc(Cl)cc1)=N[C@@H](CC(=O)OC(C)(C)C)c1nnc(C)n1-2 [NCGC00250412-19],-355
17,CNC(=O)c1ccc2c(C(=Nc3cccc(CN(C)C)c3)c3ccccc3)c(O)[nH]c2c1 + Cc1sc2c(c1C)C(c1ccc(Cl)cc1)=N[C@@H](CC(=O)OC(C)(C)C)c1nnc(C)n1-2 [NCGC00250412-19],93.9
